Values from PubChem BioAssay AID1508597 (Cure First, 2020)
This is an unselected part of the about 2,100 reagents, in one setting of the screen. 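Calls flag viability under 80% in either arm, not effects specific to rucaparib; the reference for percent is not stated.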 A reagent listed more than once was tested more than once; the source does not tell the runs apart. The record does not give: the 100% reference.

Aim: 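Genes whose silencing sensitises or protects ovarian cancer cells against rucaparib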 (primary screen)
Cells: human ovarian carcinoma lines grown from tumours: OCI-P5x (papillary serous) and OCI-C5x (clear cell)
Reagents: siRNA pool against human genes, 1.25 pmol siRNA per well
Duration: 72 h or 96 h, depending on the cell culture
Conditions: rucaparib 20 µM (about IC30) or vehicle, present until read-out
Rucaparib or vehicle: Rucaparib
Cell line: OCI-C5x (clear cell)
Measured: 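ATP luminescence measured at 72 or 96 h according to the culture, then normalised and expressed as percent viability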
Scale: viability, normalised: higher = more viable cells remaining
Rule for the call: 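a well counts as a hit if its normalised viability is under 80 percent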
Meaning of the calls: active = viability under 80%; inactive = viability 80% or more

RPL3 (ribosomal protein L3), technical replicate 1: viability, normalised (%) = 55.7; Call = active
RPL3 (ribosomal protein L3), technical replicate 2: viability, normalised (%) = 41.9; Call = active
RPL3 (ribosomal protein L3), technical replicate 3: viability, normalised (%) = 45.5; Call = active
SIN3B (SIN3 transcription regulator family member B), technical replicate 1: viability, normalised (%) = 30.1; Call = active
SIN3B (SIN3 transcription regulator family member B), technical replicate 2: viability, normalised (%) = 32.5; Call = active
SIN3B (SIN3 transcription regulator family member B), technical replicate 3: viability, normalised (%) = 29.3; Call = active
TINF2 (TERF1 interacting nuclear factor 2), technical replicate 1: viability, normalised (%) = 45.8; Call = active
TINF2 (TERF1 interacting nuclear factor 2), technical replicate 2: viability, normalised (%) = 57.2; Call = active
TINF2 (TERF1 interacting nuclear factor 2), technical replicate 3: viability, normalised (%) = 45.1; Call = active
RBBP8 (RB binding protein 8, endonuclease), technical replicate 1: viability, normalised (%) = 54.9; Call = active
RBBP8 (RB binding protein 8, endonuclease), technical replicate 1: viability, normalised (%) = 37.7; Call = active
RBBP8 (RB binding protein 8, endonuclease), technical replicate 2: viability, normalised (%) = 50.7; Call = active
RBBP8 (RB binding protein 8, endonuclease), technical replicate 2: viability, normalised (%) = 35.9; Call = active
RBBP8 (RB binding protein 8, endonuclease), technical replicate 3: viability, normalised (%) = 36.7; Call = active
RBBP8 (RB binding protein 8, endonuclease), technical replicate 3: viability, normalised (%) = 50.2; Call = active
GUCY2D (guanylate cyclase 2D, retinal), technical replicate 1: viability, normalised (%) = 42.4; Call = active
GUCY2D (guanylate cyclase 2D, retinal), technical replicate 2: viability, normalised (%) = 55.9; Call = active
GUCY2D (guanylate cyclase 2D, retinal), technical replicate 3: viability, normalised (%) = 36.6; Call = active

Laid out differently: results already given.
| Gene | technical replicate | viability, normalised (%) | Call |
| --- | --- | --- | --- |
| TINF2 (TERF1 interacting nuclear factor 2) | 1 | 45.8 | active |
| TINF2 (TERF1 interacting nuclear factor 2) | 2 | 57.2 | active |
| TINF2 (TERF1 interacting nuclear factor 2) | 3 | 45.1 | active |
| RBBP8 (RB binding protein 8, endonuclease) | 1 | 54.9 | active |

Additional records follow.
DGKQ (diacylglycerol kinase theta), technical replicate 1: viability, normalised (%) = 51.2; Call = active
DGKQ (diacylglycerol kinase theta), technical replicate 2: viability, normalised (%) = 58.7; Call = active
DGKQ (diacylglycerol kinase theta), technical replicate 3: viability, normalised (%) = 49.5; Call = active
MAP2K6 (mitogen-activated protein kinase kinase 6), technical replicate 1: viability, normalised (%) = 81.9; Call = inactive
MAP2K6 (mitogen-activated protein kinase kinase 6), technical replicate 2: viability, normalised (%) = 71.1; Call = active
MAP2K6 (mitogen-activated protein kinase kinase 6), technical replicate 3: viability, normalised (%) = 75.4; Call = active
TKFC (triokinase and FMN cyclase), technical replicate 1: viability, normalised (%) = 32.1; Call = active
TKFC (triokinase and FMN cyclase), technical replicate 2: viability, normalised (%) = 23.2; Call = active
TKFC (triokinase and FMN cyclase), technical replicate 3: viability, normalised (%) = 22.2; Call = active
ROR1 (ROR family WNT receptor 1), technical replicate 1: viability, normalised (%) = 48.3; Call = active
ROR1 (ROR family WNT receptor 1), technical replicate 2: viability, normalised (%) = 63.4; Call = active
ROR1 (ROR family WNT receptor 1), technical replicate 3: viability, normalised (%) = 54.8; Call = active
TIPARP (TCDD inducible poly(ADP-ribose) polymerase), technical replicate 1: viability, normalised (%) = 41.8; Call = active
TIPARP (TCDD inducible poly(ADP-ribose) polymerase), technical replicate 2: viability, normalised (%) = 37.8; Call = active
TIPARP (TCDD inducible poly(ADP-ribose) polymerase), technical replicate 3: viability, normalised (%) = 32.7; Call = active
